Inconclusive results, whose numbers are uncertain, are shown with a selection of clear calls. Where the call is inconclusive, the potency comes from a doubtful curve fit. Active and inactive are the calls of the source. The call rests on the fitted dose curve; in most records, active means well fitted inhibition curve with a large enough effect; inconclusive means small, poorly fitted or top-dose-only effect; inactive means flat fitted curve, though single readings scatter.
Assay: Secondary qRT-PCR qHTS assay for selected Zika virus inhibitors
Procedure, shortened: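 Viral load was measured as NS5 RNA by TaqMan qRT-PCR and expressed relative to vehicle. This followed ZIKV infection (MOI 1, 3 h adsorption, then wash) of compound-treated Vero cells and 21 h further culture at 37C.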

SMILES | Potency | activity change, negative = inhibition
O=C(O)Cn1nnc(-c2cc(N3CCC(Oc4cc(F)ccc4Br)CC3)no2)n1 | inactive | –
CC(C)C[C@H](C(=O)O)c1cc(-c2ccc(C(F)(F)F)cc2)cc(-c2ccc(C(F)(F)F)cc2)c1 | active: 12.6 µM | –
O=C(c1cc(O)c(O)c([N+](=O)[O-])c1)c1ccccc1F | inconclusive: 6.31 µM [inhibitor, full curve, poor fit] | –
O=C(O)Cc1cc(I)c(Oc2ccc(O)c(I)c2)c(I)c1 | inactive | –
CC(Oc1ccccc1)C(=O)Nc1ccc(C(=O)OCc2cc(=O)n3nc(C4CC4)sc3n2)cc1 (stereo unspecified) | inactive | –
O=C(Nc1ccc(Oc2ccc(Cl)cc2)c(Cl)c1)c1cc(I)cc(I)c1O | inconclusive: 3.98 µM [inhibitor, partial curve, poor fit] | –
CC1(C)CCC(CN2CCN(c3ccc(C(=O)NS(=O)(=O)c4ccc(NCC5CCOCC5)c([N+](=O)[O-])c4)c(Oc4cnc5[nH]ccc5c4)c3)CC2)=C(c2ccc(Cl)cc2)C1 | inconclusive: 2.51 µM [inhibitor, full curve, poor fit] | –
Cc1ccc2nc(NS(=O)(=O)c3ccc(Cl)cc3)c(Nc3ccc(C(=O)O)cc3)nc2c1 | inactive | –
CCCCCCCC/C=C\CCCCCCCC(=O)NCCc1ccc(O)c(O)c1 | inconclusive: 14.1 µM [inhibitor, partial curve] | –
COc1cc(/C=C/c2ccccc2)c(C(=O)O)c(O)c1CC=C(C)C | inactive | –
N#CC(c1ccc(Cl)cc1)c1c(Cl)cc(-n2ncc(=O)[nH]c2=O)cc1Cl (stereo unspecified) | inconclusive: 14.1 µM [inhibitor, partial curve, poor fit] | –
COc1cnc(-c2ccc(Cn3c(CC(C)(C)C(=O)O)c(SC(C)(C)C)c4cc(OC[C@@H]5Cc6ccccc6N5C(C)=O)ccc43)cc2)nc1 | inconclusive: 10 µM [inhibitor, full curve] | –
Cc1cccc(C)c1NS(=O)(=O)c1ccc(NS(=O)(=O)c2ccc3c(c2)OCCO3)cc1 | inconclusive: 25.1 µM [inhibitor, partial curve, poor fit] | –
COc1cc(/C=C(\C#N)C(=O)Nc2nnc(C(F)(F)F)s2)ccc1OCc1ccc(C(F)(F)F)cc1C(F)(F)F | inconclusive: 7.08 µM [inhibitor, full curve] | –
COc1cc(C)c(C(=O)OC2C(C)OC(OC3CCC(C)C4C3C=C(C)C3/C(C)=C\CC/C(C)=C/C5(C)C=C(C(=O)O)C(C)CC56OC(=O)/C(=C(\O)C34C)C6=O)C(O)C2O)c(OC)c1 (stereo unspecified) | – | inactive: -1.08% [at 8.13 µM]
O=C(O)/C=C/c1ccc(-c2ccc(O)c(C34CC5CC(CC(C5)C3)C4)c2)cc1 | active: 10 µM | –

SMILES | Potency | activity change, negative = inhibition
CCOC(=O)c1ccc(N2C(=O)c3n[nH]c(-c4cccs4)c3C2c2ccc(Cl)cc2Cl)cc1 (stereo unspecified) | inconclusive: 6.31 µM [inhibitor, full curve, poor fit] | –
CNC(=O)c1cc(Oc2ccc(NC(=O)Nc3ccc(Cl)c(C(F)(F)F)c3)cc2)ccn1 | inconclusive: 14.1 µM [inhibitor, partial curve] | –
CC[C@@H](C(=O)[C@H](C)[C@@H](O)[C@H](C)CCc1ccc(C)c(O)c1C(=O)O)C1O[C@@](CC)(C2CC[C@](O)(CC)[C@H](C)O2)C[C@@H]1C (stereo partly specified) | inconclusive: 5.01 µM [inhibitor, full curve] | –
CN(C)CC[C@H](CSc1ccccc1)Nc1ccc(S(=O)(=O)NC(=O)c2ccc(N3CCN(Cc4ccccc4-c4ccc(Cl)cc4)CC3)cc2)cc1[N+](=O)[O-] | inconclusive: 3.98 µM [inhibitor, full curve] | –
COc1cc(Nc2nc3ccccc3nc2NS(=O)(=O)c2cccc(NC(=O)c3ccc(C)c(OC)c3)c2)cc(OC)c1 | inconclusive: 14.1 µM [inhibitor, single point] | –
CCOc1ccc(-c2ccc(Cn3c(CC(C)(C)C(=O)O)c(SC(C)(C)C)c4cc(OCc5ccc(C)cn5)ccc43)cc2)cn1 | inconclusive: 14.1 µM [inhibitor, partial curve] | –
Cc1cc(C)cc(C(=O)N(C)[C@H](Cc2ccc(-c3ccccc3)cc2)C(=O)N[C@@H](Cc2c[nH]c3ccccc23)C(=O)O)c1 | inconclusive: 22.4 µM [inhibitor, partial curve, poor fit] | –
C=C(c1ccc(C(=O)O)cc1)c1cc2c(cc1C)C(C)(C)CCC2(C)C | inconclusive: 15.8 µM [inhibitor, single point] | –
CN(C)[C@@H]1C(=O)C(C(N)=O)=C(O)[C@@]2(O)C(=O)C3=C(O)c4c(O)cccc4C[C@H]3C[C@@H]12 | inactive | –
Cc1ccn(-c2ccc(-c3ncco3)cc2)c(=O)c1-c1ccc2nc(N)ncc2c1 | inactive | –
CC1(C)CCC(C)(C)c2cc3c(cc21)Sc1ccccc1N=C3c1ccc(C(=O)O)cc1 | inactive | –
C[C@@]12O[C@@H](C[C@]1(O)CO)n1c3ccccc3c3c4c(c5c6ccccc6n2c5c31)CNC4=O | inconclusive: 12.6 µM [inhibitor, partial curve] | –
O=C(O)c1ccc2c(ccc3nn(-c4ccc(/C=C/c5ccc(-n6nc7ccc8cc(C(=O)O)ccc8c7n6)cc5[S+](=O)([O-])[O-])c([S+](=O)([O-])[O-])c4)nc32)c1 | inconclusive: 22.4 µM [inhibitor, single point] | –
CCOC(=O)c1ccc(NC(=O)CSc2nc(-c3ccc(F)cc3)cc(C(F)(F)F)c2C#N)cc1 | inactive | –
COc1c(C)c2c(c(O)c1C/C=C(\C)CCC(=O)O)C(=O)OC2 | inactive | –

An excerpt from above in order of number of heavy atoms, largest number first.
SMILES | Potency | activity change, negative = inhibition
O=C(O)c1ccc2c(ccc3nn(-c4ccc(/C=C/c5ccc(-n6nc7ccc8cc(C(=O)O)ccc8c7n6)cc5[S+](=O)([O-])[O-])c([S+](=O)([O-])[O-])c4)nc32)c1 | inconclusive: 22.4 µM [inhibitor, single point] | –
CC[C@@H](C(=O)[C@H](C)[C@@H](O)[C@H](C)CCc1ccc(C)c(O)c1C(=O)O)C1O[C@@](CC)(C2CC[C@](O)(CC)[C@H](C)O2)C[C@@H]1C (stereo partly specified) | inconclusive: 5.01 µM [inhibitor, full curve] | –
COc1cc(/C=C/c2ccccc2)c(C(=O)O)c(O)c1CC=C(C)C | inactive | –
